Assay results taken from PubChem BioAssay AID1117319 (Southern Research Institute, 2015).
Among all 260,000 compounds or so, about 1,500 (0.58%) were called active. The shares of active, inactive and inconclusive entries below differ from those in the screen.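 How the source made its calls: active means inhibition above a set limit at one or more doses, reproduced on every date tested; inconclusive means results disagree between test dates, or hit never tested in dose response; inactive means the rest.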

Protein sequences, listed by entry. Tags and fused reporters are not part of them. Lines headed by an entry give the natural chain unless they say otherwise; changes in a name come on top.
UniProt P69720: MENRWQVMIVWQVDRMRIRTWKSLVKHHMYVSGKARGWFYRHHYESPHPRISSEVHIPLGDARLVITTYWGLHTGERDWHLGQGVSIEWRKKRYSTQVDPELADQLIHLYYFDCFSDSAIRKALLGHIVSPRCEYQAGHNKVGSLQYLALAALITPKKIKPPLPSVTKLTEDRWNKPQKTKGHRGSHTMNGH
UniProt P69721: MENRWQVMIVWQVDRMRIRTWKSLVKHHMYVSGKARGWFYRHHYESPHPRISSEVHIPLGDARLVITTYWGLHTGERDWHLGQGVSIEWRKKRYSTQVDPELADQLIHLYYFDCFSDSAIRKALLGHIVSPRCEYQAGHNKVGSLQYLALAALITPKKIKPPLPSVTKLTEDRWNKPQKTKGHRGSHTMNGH
UniProt P69722: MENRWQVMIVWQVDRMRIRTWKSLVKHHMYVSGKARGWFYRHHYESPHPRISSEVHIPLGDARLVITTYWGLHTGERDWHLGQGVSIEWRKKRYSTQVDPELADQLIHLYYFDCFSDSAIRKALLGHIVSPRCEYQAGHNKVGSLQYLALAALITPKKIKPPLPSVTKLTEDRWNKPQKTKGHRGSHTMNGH
UniProt P69723: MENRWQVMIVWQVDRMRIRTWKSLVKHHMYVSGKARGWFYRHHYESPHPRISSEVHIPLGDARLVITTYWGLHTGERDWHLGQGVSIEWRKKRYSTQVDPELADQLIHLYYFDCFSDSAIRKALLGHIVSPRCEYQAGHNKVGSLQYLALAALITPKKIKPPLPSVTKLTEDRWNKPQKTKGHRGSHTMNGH
UniProt Q9HC16: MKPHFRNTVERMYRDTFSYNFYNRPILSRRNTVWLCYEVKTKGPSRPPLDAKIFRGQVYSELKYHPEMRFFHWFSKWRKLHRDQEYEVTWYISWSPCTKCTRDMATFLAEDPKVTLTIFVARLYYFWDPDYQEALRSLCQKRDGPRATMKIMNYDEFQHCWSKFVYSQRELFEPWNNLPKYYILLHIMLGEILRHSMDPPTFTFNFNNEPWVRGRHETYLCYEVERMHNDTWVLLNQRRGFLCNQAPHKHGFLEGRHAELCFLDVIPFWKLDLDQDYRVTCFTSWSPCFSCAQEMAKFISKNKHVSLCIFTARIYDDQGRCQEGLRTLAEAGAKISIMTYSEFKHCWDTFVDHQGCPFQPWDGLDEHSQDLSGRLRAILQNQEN

Molecular target: Virion infectivity factor (Human immunodeficiency virus type 1 group M subtype B (isolate BH10)) + Virion infectivity factor (Human immunodeficiency virus type 1 group M subtype B (isolate BRU/LAI)) + Virion infectivity factor (Human immunodeficiency virus type 1 group M subtype B (isolate PCV12)) + Virion infectivity factor (Human immunodeficiency virus type 1 group M subtype B (isolate HXB2)) + DNA dC->dU-editing enzyme APOBEC-3G (Homo sapiens) (UniProt P69720+P69721+P69722+P69723+Q9HC16)
Assay: inhibitors of Vif binding to APOBEC3G peptide, primary screen, biochemical, TR-FRET, GST-Vif 1-94, biotin-A3G peptide, dose response retest (AID 1117319);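 further: Vif residues 1-94 fused to GST binding biotinylated APOBEC3G peptide 110-148; 0% = full assay without inhibitor and 100% = GST in place of GST-Vif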
Details: stronger effect = higher value

| Structure (SMILES) | inhibition |
| --- | --- |
| CN1CC(c2ccccc2)C2(COc3ccccc3C2=O)C12C(=O)Nc1ccccc12 (centres undefined) | inconclusive: 41.2% |
| CCOC(=O)Cn1c(C)c(Br)c(COC)c(C#N)c1=O | inconclusive: 35.2% |
| CCOC(=O)N1CCN(S(=O)(=O)c2cccs2)CC1 | inconclusive: 36.4% |
| Cc1ccc(Cn2c(CN3CCOCC3)nc3c2c(=O)[nH]c(=O)n3C)cc1 | inconclusive: 35.2% |
| CCCCN(CCCNC(=O)C1CCN(S(=O)(=O)CC)CC1)c1ccccc1 | inconclusive: 50.3% |
| COc1cc(NC(=O)Cn2cnc3sc(C)c(S(=O)(=O)N4CCN(C)CC4)c3c2=O)cc(OC)c1OC | inconclusive: 34.7% |
| Cc1cccc(NC(=O)c2ccccc2[N+](=O)[O-])n1 | inconclusive: 48.1% |
| CC(=O)Nc1cccc(OCC(=O)Nc2ccc(F)cc2)c1 | inconclusive: 13.6% |
| O=C(NCCN1CCOCC1)c1ccc([N+](=O)[O-])cc1[N+](=O)[O-] | inconclusive: 45.8% |
| Cc1ccccc1NC(=O)N1C2CCCC1CC(NC(=O)C1CC1)C2 (centres undefined) | inconclusive: 33.4% |
| Cc1ccc(S(=O)(=O)n2nc(OC(=O)c3c(-c4ccccc4Cl)noc3C)cc2N)cc1 | inconclusive: 62% |
| C[N+]1=C(/C=C/Nc2ccccc2Cl)C(C)(C)c2ccccc21 | inconclusive: 36.2% |
| CC[n+]1c(/C=C/N(C)c2ccccc2)oc2ccc(Cl)cc21 | inconclusive: 57.8% |
| COc1ccc(CC(NC(C)=O)C(=O)NC2CCN(C(=O)Nc3ccccc3Cl)CC2)cc1OC (centres undefined) | inconclusive: 53% |
| CC1(C)CC(O)C(C(O)c2cccc([N+](=O)[O-])c2)C(C)(C)N1 (centres undefined) | inconclusive: 34.2% |
| COc1ccc(S(=O)(=O)CCC(=O)NC2CCCCC2)cc1 | inactive: 23.2% |
| Cc1cccc2cc(C(c3nnnn3CC3CCCO3)N3CCCC4(CCCCC4)C3)c(=O)[nH]c12 (centres undefined) | inconclusive: 60.6% |
| O=[n+]1cc(-c2ccccc2)n([O-])c2c1CCC2 | inconclusive: 43.1% |
| Cc1nc(N2CCN(C(=O)CCC(=O)O)CC2)c2c(C)c(C)sc2n1 | inconclusive: 35% |
| COc1ccc(OC)c(NC(=O)COC(=O)c2cc3c(s2)CCC3)c1 | inconclusive: 50.7% |
| Cc1ccc(OCC(=O)Nc2ccccc2Sc2ccccc2)c([N+](=O)[O-])n1 | inconclusive: 34% |
| Cn1cccc1/C=C1\SC(=Nc2ccc(O)cc2)NC1=O | inactive: -0.29% |
| O=C(Nc1ccc(F)cc1)c1nc[nH]c1C(=O)Nc1ccc([N+](=O)[O-])cc1 | inconclusive: 45.2% |

| Structure (SMILES) | inhibition |
| --- | --- |
| O=C(CSc1nc2ccccc2nc1SCC(=O)N1CCCCC1)N1CCCCC1 | inconclusive: 40.8% |
| Cc1cnc(NC(=O)/C=C/c2ccc(Br)o2)s1 | inactive: 20.7% |
| O=C1CC(CSc2ccc(Cl)cc2)=NN1 | inactive: -2.88% |
| Cc1[nH]c2ccccc2c1C(=O)NS(=O)(=O)Nc1ccc(Cl)cc1 | inactive: 12.1% |
| C[C@]12CC[C@@H]3c4ccc(O)cc4CC[C@H]3[C@@H]1CC[C@@H]2OC(=O)CCC(=O)O | inconclusive: 39.9% |
| Cc1cccc(-n2c(-c3ccco3)nc3nc4ccccc4nc32)c1 | inconclusive: 36.9% |
| COc1ccc(-c2nnc(SCC(=O)Nc3cccc(Cl)c3)o2)cc1 | inconclusive: 37.1% |
| CCC(Sc1nc(C)cc(C)n1)C(=O)Nc1ccc(S(N)(=O)=O)cc1 (centres undefined) | inconclusive: 35.1% |
| CCCCOc1ccc(-c2nnn(CC(=O)NCc3ccco3)n2)cc1 | inconclusive: 56.1% |
| COc1cccc(C(=O)N2CCN(C3CCN(Cc4ccccc4)CC3)CC2)c1OC | inconclusive: 35.1% |
| O=C(c1ccc(Cl)cc1)c1oc2ccccc2c1CS(=O)(=O)c1ccccc1 | inconclusive: 39.3% |
| CCOc1ccc(NC(=O)CN2CCN(CC(=O)Nc3ccc(C(N)=O)cc3)CC2)cc1 | inactive: -3.98% |
| O=C(NNC(=O)c1ccc[nH]1)Nc1cc(Cl)cc(Cl)c1 | inconclusive: 51.5% |
| COCCOc1nc2c(c(=O)n(C)c(=O)n2C)n1Cc1cccc(OC)c1 | inconclusive: 36.1% |
| Cc1ccc(/C=N/NC(=O)C(C)NC(=O)c2ccccc2)cc1 (centres undefined) | inconclusive: 62.9% |
| CN(C)/C=C(\C#N)C(=O)Nc1ccc(F)cc1 | inconclusive: 4.84% |
| Clc1cccc(N2CCN(Cc3nnc(-c4ccccc4)o3)CC2)c1 | inconclusive: 45.1% |
| Cc1c(O)ccc(/C(Cc2ccc3ccccc3n2)=N\O)c1O | inconclusive: 48.3% |
| COc1cccc(C2=NOC(C(=O)NCc3cccs3)C2)c1 (centres undefined) | inactive: -3.08% |
| COC(=O)C1(C(=O)OC)Sc2ccccc2C1=O | inconclusive: 45.5% |
| COc1ccccc1OCCNC(=O)c1cc(C2CC2)nc2c1cnn2C(C)C | inconclusive: 36.3% |
| Nc1ncc2c(n1)CC(c1ccco1)CC2=O (centres undefined) | inconclusive: 60.6% |
| O=[N+]([O-])c1cc(CN2CCN(c3ccccc3)CC2)c(O)c2ncccc12 | inactive: 12.7% |

| Structure (SMILES) | inhibition |
| --- | --- |
| Cc1cc(C)c(S(=O)(=O)N2CCCC(C(=O)NCCC3=CCCCC3)C2)c(C)c1 (centres undefined) | inactive: 9.17% |
| N#Cc1c(N)c(C(=O)c2ccccc2)n2c1CCC2 | inconclusive: 44.2% |
| O=C1NC(=O)C(=Cc2ccco2)S1 | inactive: -2.41% |
| CC(C)C(=O)NC(c1ccc(N(C)C)cc1)c1c(O)ccc2ccccc12 (centres undefined) | inconclusive: 47.6% |
| CCC(=O)NC1(C(F)(F)F)C(=O)Nc2c1c(=O)[nH]c(=O)n2Cc1ccco1 (centres undefined) | inconclusive: 51.8% |
| CC1=C/C(=C/N(C)c2ccccc2)C(=O)S1 | inconclusive: 36.3% |
| CC(NC(=O)C(=O)N/N=C/c1ccc(Cl)cc1)c1ccccc1 (centres undefined) | inconclusive: 34.5% |
| CCOc1ccccc1NC(=O)CN1C(=O)COc2ccc(Cl)cc21 | inconclusive: 60.1% |
| C/C(=C\COc1cc(=O)[nH]c2ccccc12)CCC(O)C(C)(C)O (centres undefined) | inconclusive: 53% |
| CC(C)CC(C(=O)Nc1oc(-c2ccco2)c(-c2ccco2)c1C#N)N1C(=O)c2ccccc2C1=O (centres undefined) | inconclusive: 61.5% |
| COc1ccc2[nH]cc(CCCN3C(=O)c4ccccc4C3=O)c2c1 | inconclusive: 45.1% |
| O=C1CCN(C(=O)/C=C/c2ccccc2)c2ccccc21 | inconclusive: 53.9% |
| COCCCNS(=O)(=O)c1ccc(OC)c(Cl)c1Cl | inconclusive: 45.8% |
| Cc1ccc(S(=O)(=O)N2CCCc3ccccc32)cc1 | inactive: 3.67% |
| Fc1cccc(Cl)c1-c1nnc2ccc3ccccc3n12 | inconclusive: 36.9% |
| O=C(NNc1c(Cl)cc(Cl)cc1Cl)c1cccc([N+](=O)[O-])c1 | inconclusive: 43.7% |
| COc1cc(NC(=O)c2ccc3c(SCC(=O)O)c4c(nc3c2)CCC4)cc(OC)c1OC | inactive: 22.2% |
| CCCOc1ccccc1C(=O)NC(CO)C(=O)O (centres undefined) | inconclusive: 38.7% |
| CCNc1ccccc(-c2ccc3ccccc3n2)c1=O | inactive: 14.5% |
| COc1ccc(C(=O)N2CCN(C(=O)Cc3ccccc3)CC2)cc1 | inconclusive: 43.3% |
| CCS(=O)(=O)CCSc1nc2ccccc2s1 | inconclusive: 52.6% |
| O[C@H]1COC2C1OC[C@@H]2O (some centres undefined) | inconclusive: 33.3% |
| CCC1c2ccc(C)n2CCN1C(=O)Nc1ccc(F)cc1 (centres undefined) | inconclusive: 34.6% |

| Structure (SMILES) | inhibition |
| --- | --- |
| O=C(Nc1ccc(Cl)cc1F)c1ccc(COc2c(F)c(F)c(F)c(F)c2F)o1 | inconclusive: 49.7% |
| Cc1ccc(OC(=O)c2cc(=O)c3ccccc3o2)cc1 | inconclusive: 38.9% |
| Cc1ccc(NC(=O)C2C(=O)N(CCO)C3(C)CC2c2ccccc2O3)cc1 (centres undefined) | inconclusive: 56.3% |
| CC(=O)NNc1nc(-c2ccccc2)c2cc(Br)ccc2n1 | inconclusive: 61% |
| COc1ccc(COCC(O)CN2CC(C)OC(C)C2)cc1OC (centres undefined) | inconclusive: 37.5% |
| CCOC(=O)c1c(C)oc2ccc(NS(=O)(=O)c3ccc4c5c(cccc35)C(=O)N4)cc12 | inconclusive: 6.84% |
| O=C(O)c1cc(-c2ccc(/C=N/Nc3ccc(Cl)cc3)o2)ccc1Cl | inconclusive: 38.7% |
| COc1ccc2c(c1OC)C(=O)O[C@@H]2[C@H]1c2c(cc3c(c2OC)OCO3)CCN1C | inconclusive: 43% |
| Cc1ccc(S(=O)(=O)N(C)CC(=O)NNC(=O)Cc2cccc(F)c2)cc1 | inconclusive: 43.4% |
| COc1cc(C2c3c([nH]c(=O)[nH]c3=O)Nc3ccc4ccccc4c32)ccc1O (centres undefined) | inconclusive: 38.4% |
| Cc1ccc(NC(=O)/C(C#N)=C/c2ccc(Sc3nc(C)cc(C)n3)o2)cc1 | inactive: -1.36% |
| O=c1cc(CSc2nnc(-c3ccccc3)o2)c2ccccc2[nH]1 | inconclusive: 54.3% |
| O=c1c2ccccc2nc(COc2ccccc2)n1/N=C/c1ccc(O)c(O)c1 | inconclusive: 53.8% |
| CSc1ccccc1C(=O)NCCSC(C)(C)C | inconclusive: 43.8% |
| O=C(NCCCN1CCCC1=O)c1ccc2c(=O)n(Cc3ccco3)c(=S)[nH]c2c1 | inconclusive: 42.9% |
| CC(=O)CCc1oc2ccc(NC(C)=O)cc2c1-c1ccc(C)o1 | inconclusive: 46.1% |
| Cc1ccc2c(c1)C1CN(C)CCC1N2C(=O)COc1ccc(N(C)C(=O)C(C)(C)C)cc1 (centres undefined) | inconclusive: 50.4% |
| O=C1N(Cc2cccc(Cl)c2)C[C@@H]2C[C@@H](c3c[nH]c4ccccc34)N3CCC[C@@]123 | inactive: 0.3% |
| CC1(C)Cc2nc3sc4c(N(CCO)CCO)nnnc4c3cc2CO1 | inconclusive: 33.5% |
| CN(C)c1ccc(/C=N/NC(=O)CCc2c[nH]c3ccccc23)cc1 | inconclusive: 41% |
